According to the supplement of paper PMC3682954:
Several values for one entry are separate records, joined by “and”; a condition that tells them apart may be missing. Identical values can stand only once. Counter-ions that a name gives are not always drawn. ± gives the standard deviation of the averaged measurements. This is one part of the list. Many values rest on one well or one pass, so single values are uncertain.

Test system: RAW 264.7
Assay: cell viability (MTT) relative to vehicle control; higher = more viable cells
Details: stimulus: HMGB1 5 ug/ml, 18 h
[1] = compound concentration: 1 ug/ml

Row | Structure (SMILES) | cell viability (compound concentration: 3 uM) | cell viability [1] [%]
1 | C[C@H]1COc2c(N3CCN(C)CC3)c(F)cc3c(=O)c(C(=O)O)cn1c23 | 102 ± 4.1% | –
2 | C[C@H]1COc2c(N3CCN(C)CC3)c(F)cc3c(=O)c(C(=O)O)cn1c23 [Levofloxacin] | 102% | –
3 | NC(CO)C(=O)NNCc1ccc(O)c(O)c1O (centres undefined) [Benserazide] | 86.3% | –
4 | NC(CO)C(=O)NNCc1ccc(O)c(O)c1O (centres undefined) [Benserazide hydrochloride] | 87.2 ± 7.9% | –
5 | NC(CO)C(=O)NNCc1ccc(O)c(O)c1O (centres undefined) | 111% | –
6 | Nc1nc(O)c2ncn(CCC(CO)CO)c2n1 | 97.5% | –
7 | Nc1nc(O)c2ncn(CCC(CO)CO)c2n1 [Penciclovir] | 104 ± 12% | –
8 | Fc1ccc([C@@H]2CCNC[C@H]2COc2ccc3c(c2)OCO3)cc1 [Paroxetine Hydrochloride] | 89.5% | –
9 | Fc1ccc([C@@H]2CCNC[C@H]2COc2ccc3c(c2)OCO3)cc1 [Paroxetine hydrochloride hemihydrate (MW = 374.83)] | 109% | –
10 | Fc1ccc([C@@H]2CCNC[C@H]2COc2ccc3c(c2)OCO3)cc1 | 98.9% | –
11 | Fc1ccc([C@@H]2CCNC[C@H]2COc2ccc3c(c2)OCO3)cc1 [Paroxetine] | 103 ± 15% | –
12 | O=c1[nH]cnc2c1ncn2[C@H]1CC[C@@H](CO)O1 [Didanosine] | 104 ± 2.6% | –
13 | O=c1[nH]cnc2c1ncn2[C@H]1CC[C@@H](CO)O1 | 99.6% | –
14 | CN(C/C=C/C#CC(C)(C)C)Cc1cccc2ccccc12 | 112% and 97.7% | –
15 | CN(C/C=C/C#CC(C)(C)C)Cc1cccc2ccccc12 [Terbinafine] | 118% | –
16 | NCC[C@H](O)C(=O)N[C@@H]1C[C@H](N)[C@@H](O[C@H]2O[C@H](CN)[C@@H](O)[C@H](O)[C@H]2O)[C@H](O)[C@H]1O[C@H]1O[C@H](CO)[C@@H](O)[C@H](N)[C@H]1O | 107% | –
17 | NCC[C@H](O)C(=O)N[C@@H]1C[C@H](N)[C@@H](O[C@H]2O[C@H](CN)[C@@H](O)[C@H](O)[C@H]2O)[C@H](O)[C@H]1O[C@H]1O[C@H](CO)[C@@H](O)[C@H](N)[C@H]1O [Amikacin hydrate] | 117% | –
18 | O=C1c2cccc3c2[C@H](CCC3)CN1[C@@H]1CN2CCC1CC2 | 101% | –
19 | Cc1cc2nc3c(=O)[nH]c(=O)nc-3n(CC(O)C(O)C(O)COP(=O)(O)O)c2cc1C (centres undefined) | 97.6% | –
20 | COc1cc(/C=C/C(=O)CC(=O)/C=C/c2ccc(O)c(OC)c2)ccc1O [Curcumine] | – | 96.1
21 | O=C1C(SCCO)=C(SCCO)C(=O)c2ccccc21 | 25.2% | –
22 | CC1CC2(C)Oc3ccccc3C3OCC1(COC(=O)Nc1ccccc1)C(C)C32 (centres undefined) | – | 94.2
23 | OCCN1C[C@H](O)[C@@H](O)[C@H](O)[C@H]1CO [Miglitol] | 81.8% | –
24 | OCCN1C[C@H](O)[C@@H](O)[C@H](O)[C@H]1CO | 98.7 ± 10% | –
